Sequences and labels used below:
B1: human-canine chimeric Fasinumab (antibody, V domains shown)
VH: QVQLVQSGAEVKKPGASVKVSCKVSGFTLTELSIHWVRQAPGKGLEWMGGFDPEDGETIYAQKFQGRVTMTEDTSTDTAYMELTSLRSEDTAVYYCSTIGVVTNFDNWGQGTLVTVSS
VL: DIQMTQSPSSLSASAGDRVTITCRASQAIRNDLGWYQQKPGKAPKRLIYAAFNLQSGVPSRFSGSGSGTEFTLTISSLQPEDLASYYCQQYNRYPWTFGQGTKVEIKR
notes: Human VH/VL of fasinumab fused to canine IgG-B constant regions and canine kappa constant region; also called Fas Chimeric; Fas Chim
B2: cFulVH2L1 (antibody, V domains shown)
VH: EVQLVESGGDLVKPGGSLRLSCVASGFTLRSYSMNWIRQAPGKGLQWVSYISRSSHTIFYADSVKGRFTISRDNAKNTLYLQMDSLRDEDTAVYYCARVYSSGWHVSDYFDYWGQGILVTVSS
VL: EIVMTQSPASLSLSQEEKVTITCRASQGISSALAWYQQKPGQAPKLLIYDASSLESGVPSRFSGSGSGTDFSFTISSLEPEDVAVYYCQQFNSYPLTFGQGTKVEIKR
B3: cFulVH1L1 (antibody, V domains shown)
VH: EVQLVESGGDLVKPGGSLRLSCVASGFTFSSYSMNWIRQAPGKGLQWVSYISRSSHTIFYADSVKGRFTISRDNAKNTLYLQMNSLRDEDTAVYYCARVYSSGWHVSDYFDYWGQGTLVTVSS
VL: EIVMTQSPASLSLSQEEKVTITCRASQGISSALAWYQQKPGQAPKLLIYDASSLESGVPSRFSGSGSGTDFSFTISSLEPEDVAVYYCQQFNSYPLTFGQGTKVEIKR
B4: human-canine chimeric Fulranumab (antibody, V domains shown)
VH: EVQLVESGGGLVQPGGSLRLSCAASGFTLRSYSMNWVRQAPGKGLEWVSYISRSSHTIFYADSVKGRFTISRDNAKNSLYLQMDSLRDEDTAMYYCARVYSSGWHVSDYFDYWGQGILVTVSS
VL: AIQLTQSPSSLSASVGDRVTITCRASQGISSALAWYQQKPGKAPKLLIYDASSLESGVPSRFSGSGSGTDFTLTISSLQPEDFATYYCQQFNSYPLTFGGGTKVEIKR
notes: Human VH/VL of fulranumab fused to canine IgG-B constant regions and canine kappa constant region; expressed in HEK293, Protein A purified; also called Ful Chimeric; Ful Chim
B5: cFulVH2L2 (antibody, V domains shown)
VH: EVQLVESGGDLVKPGGSLRLSCVASGFTLRSYSMNWIRQAPGKGLQWVSYISRSSHTIFYADSVKGRFTISRDNAKNTLYLQMDSLRDEDTAVYYCARVYSSGWHVSDYFDYWGQGILVTVSS
VL: EIQLTQSPASLSLSQEEKVTITCRASQGISSALAWYQQKPGQAPKLLIYDASSLESGVPSRFSGSGSGTDFSLTISSLEPEDFAVYYCQQFNSYPLTFGGGTKVEIKR
B6: cFulVH1L2 (antibody, V domains shown)
VH: EVQLVESGGDLVKPGGSLRLSCVASGFTFSSYSMNWIRQAPGKGLQWVSYISRSSHTIFYADSVKGRFTISRDNAKNTLYLQMNSLRDEDTAVYYCARVYSSGWHVSDYFDYWGQGTLVTVSS
VL: EIQLTQSPASLSLSQEEKVTITCRASQGISSALAWYQQKPGQAPKLLIYDASSLESGVPSRFSGSGSGTDFSLTISSLEPEDFAVYYCQQFNSYPLTFGGGTKVEIKR

These are yes or no findings as the source states them, for the method shown. Some binding calls cover weakened binding; strength is not graded here.

The experiment concerns the target canine NGF (canine). Kind of experiment: ELISA, canine NGF coated. (In general: In an ELISA, binding on a coated surface is turned into a signal by an enzyme label.)
With B1, the binding result was “binds”.

In the case of B2, the binding entry was “binds”.

For the molecule B3, the binding result was “binds”.

For the molecule B4, the binding result is “binds”.

With B5, the binding entry is on record as “binds”.

For B6, the binding result is given as “binds”.

For the origin of these results see patent US20250340626A1 (INTERVET, published 2025).
